Measured values taken from US8936667B2, “Aqueous leaching process for recovery of precious metals with addition of di-thiooxamide ligand” (Anglo Operations Limited, priority 2009, dated 2015).
“And” between values parts separate entries of the source, which are not always exact repeats. Equal values may be shown once.

Legend:
[1] = Leaching of gold ore with alkaline dithiooxamide solution (Example 1); settings: 25° C., 24 h, O2 2 l/min
[2] = Leaching of Witwatersrand gold ore, parameter studies (Example 2)
Text: A head sample was submitted with every batch of samples in order to minimise errors caused by discrepancies in analysis among batches. The metal extractions for a particular batch of samples were therefore calculated using the head sample analysis from the same batch.
Deionised water was used in all preparation, dissolution, leach and washing steps.
The leach procedure was as follows:
The required amounts of ligand and alkaline water were mixed in a jacketed leach reactor until the ligand was fully dissolved. The ore was then added to the solution (unless otherwise specified, initial solids concentration was 17% m/m) and the reactor lid was fitted on. A stirring impeller, pH and (Ag/AgCl) redox electrodes, titration dispensing tube, temperature probe and gas distribution tube (if oxygen was used) were fitted into ports in the lid. The ore was then leached for the required amount of time. A water bath was used to maintain the leach temperature for the duration of the leach. The leach pH was controlled with an autotitrator. If oxygen was the oxidant, a mass flow controller was used to control oxygen-flow into the solution. At the end of the leach period, the slurry was filtered and the residue was given at least two water washes using water of the same pH as the leach solution, followed by a final wash with deionised water. The leach filtrate, wash solutions and dried solid residue were then submitted for analysis.

[3] = DTO leaching of PGM concentrate 1; settings: 1 g/l DTO, 25° C., 24 h leach time
[4] = DTO purity 98.0%, final pH 13.6, final Eh 61.9 mV vs SHE
[5] = DTO purity 98.5%, final pH 13.3, final Eh 60.9 mV vs SHE

## NC(=S)C(N)=S [DTO, dithiooxamide]
[1]; [4]
  Metal Extraction, % Al: 16%
  Metal Extraction, % Au: 91%
  Metal Extraction, % Ce: 4.1%
  Metal Extraction, % Fe: <0.05%
  Metal Extraction, % Si: 5.7%
  Metal Extraction, % U: 3.7%
[1]; [5]
  Metal Extraction, % Al: 11%
  Metal Extraction, % Au: 97%
  Metal Extraction, % Ce: <0.00005%
  Metal Extraction, % Fe: <0.05%
  Metal Extraction, % Si: 11%
  Metal Extraction, % U: 4.3%
[2]; 0.38 g/l DTO, 25° C., 24 h, pH 13.5, O2
  Gold extracted: Over 90%
[2]; between pH 11-12, 25° C., 24 h, O2, 0.9 g/l DTO
  Gold extraction: significantly lower extractions
[2]; oxygen alone 3 l/min, 24 h sample, 25° C., 0.9 g/l DTO
  Gold extraction: Greater than 90%
[2]; oxygen flow rates of 2.5 to 3 l/min, 25° C., 24 h, pH 12 control, 0.9 g/l DTO
  Gold extraction: > 90%
[2]; pH 12-14 range, 25° C., 24 h, O2, 0.9 g/l DTO
  Gold extraction: > 90%
[2]; solution Eh above 60 mV (vs SHE)
  Gold extraction: > 90%
[3]
  Metal extractions, % Au: 38% and 21% and 28%
  Metal extractions, % Pd: 27% and 28% and 24%
  Metal extractions, % Pt: ~40% and 37% and 38%
